# Values quoted from earlier work in patent US8492418B2, “Method of treating schizophrenia prodrome” (Yale University, priority 2005, dated 2013).
# At least one structure is not confirmed: it was looked up by name or label, or the drawing left a doubt.
# Tested on: prodromal patients (schizophrenia prodrome)
# Details: cited from earlier work
# [1] = 8 weeks, double blind, n=30, published data
# [2] = 8 weeks, n=30, data from previous study
smiles,measurement,setting,value
"Cc1cc2c(s1)Nc1ccccc1N=C2N1CCN(C)CC1 [Olanzapine, olanzapine]","SOPS LOCF within group effect size, DIS",[1],0.33
same,"SOPS LOCF within group effect size, GEN",[1],0.49
same,"SOPS LOCF within group effect size, NEG",[1],0.34
same,"SOPS LOCF within group effect size, POS",[1],0.55
same,"SOPS LOCF within group effect size, TOTAL",[1],0.51
same,"MMRM-based within group SOPS improvement, DIS",[2],2.0 ± 3.8
same,"MMRM-based within group SOPS improvement, GEN",[2],3.3 ± 4.6
same,"MMRM-based within group SOPS improvement, NEG",[2],4.6 ± 7.3
same,"MMRM-based within group SOPS improvement, POS",[2],2.9 ± 6.0
same,"MMRM-based within group SOPS improvement, TOTAL",[2],12.4 ± 18.3
same,twelve month conversion rate (to psychosis),"12 month trial, 60 patients randomized",16%
same,short term improvement of prodromal symptoms vs placebo (SOPS primary outcome),short term analysis,improved significantly more with placebo than with olanzapine
